Experimental data published in PubChem BioAssay AID540256 (National Center for Advancing Translational Sciences (NCATS), 2011).
Values joined by “and” are separate entries in the source; they are usually repeats but may differ in a detail not shown here. Identical values can stand only once. The whole screen tested about 300,000 compounds, of which about 3,700 (1.2%) were called active. This list was built around the results that the source calls inconclusive (neither active nor inactive); the mix of calls is not that of the screen. The call rests on the fitted dose curve; tested in HEK293 cells. A potency beside an inconclusive call is a rough fit, not a confirmed value.

Assay: qHTS for Inhibitors of binding or entry into cells for Lassa Virus; further: nearly all actives have a fitted effect of over 50% in size
Conditions: Lassa virus pseudotype entry inhibition, cell reporter; activity change, negative = inhibition: at 37.9 µM (top of the series) unless noted
On the % scale 0 is the no-effect control and ±100 the full control effect; potency means the concentration at half of the fitted maximal effect.

Compound | Potency | activity change, negative = inhibition
Nc1nc(-c2ccc(Cl)cc2Cl)cn1N | inconclusive: 12.6 µM [activator, partial curve] | –
C=CCc1cccc(/C=N/NC(=O)C(C)Nc2ccc(C)cc2)c1O (centres undefined) | inconclusive: 2.24 µM [inhibitor, full curve] | –
COc1ccc(OC)c(NP(=O)(Oc2ccccc2)Oc2ccccc2)c1 | inconclusive: 10 µM [activator, partial curve] | –
COc1ccc(CC(=O)N2CC(=O)Nc3ccc(Br)cc3C2c2ccc(F)cc2)cc1 (centres undefined) | inconclusive: 20 µM [inhibitor, single point] | –
COc1ccccc1NC(=S)N(Cc1cccs1)C1CCCC1 | – | inactive: -26.6%
COc1cccc(/C=N/Nc2nc3ccccc3n3cnnc23)c1O | inconclusive: 28.2 µM [inhibitor, single point] | –
O=[N+]([O-])c1ccc(CN2CCN(c3ccccc3)CC2)o1 | – | inactive: 11.6% [at 46.1 µM]
Cc1ccc(N=Cc2cc3c(cc2O)OC(N)=C(C#N)C3c2ccccc2)cc1 (centres undefined) | inconclusive: 17.8 µM [inhibitor, single point] | –
Fc1ccc(-c2csc(N3CCOCC3)n2)cc1 | – | inactive: 5.42% [at 46.1 µM]
COCc1cc(=O)oc2cc(NC(=O)c3ccc(C(C)(C)C)cc3)ccc12 | inconclusive: 28.2 µM [inhibitor, single point] | –
COc1ccc(-c2nc3ccccc3c(=O)o2)cc1 | – | inactive: -14.1% [at 46.1 µM]
Cc1c(C(=O)Nc2ccc(F)cc2)nnn1-c1cccc(C(F)(F)F)c1 | inconclusive: 35.5 µM [inhibitor, single point] | –
O=C(NCCSCc1ccccc1Cl)C1CCN(S(=O)(=O)Cc2ccccc2)CC1 | – | inactive: -9.3% [at 46.1 µM]
COc1ccc(S(=O)(=O)N2CCCCCC2)cc1C(=O)N(C)Cc1ccc(C(C)(C)C)cc1 | inconclusive: 1 µM [inhibitor, full curve, poor fit] | –
Cc1ccc(N(C(=O)CNC(=O)c2ccco2)C(C(=O)NC2CCCCC2)c2ccncc2)cc1F (centres undefined) | inconclusive: 2.82 µM [inhibitor, partial curve, poor fit] | –
COc1ccc(OCC(=O)Nc2ccc(O)c(-c3nc4ccccc4s3)c2)cc1 | – | inactive: 5.56% [at 46.1 µM]
Cc1cc(SCC(=O)Nc2ccccc2C)nc(C)n1 | inconclusive: 3.66 µM [inhibitor, partial curve, poor fit] | –
Cc1cc(C)c(NC2=CC(=O)CC(C)(C)C2)c(C#N)c1 | – | inactive: -17.5%
O=C(CCNS(=O)(=O)c1ccccc1)N1CCC(Cc2ccccc2)CC1 | inconclusive: 10 µM [inhibitor, partial curve] | –
N#Cc1ccccc1Cn1c(=O)n(CCCCC(=O)NCc2ccc3c(c2)OCO3)c(=O)c2ccccc21 | – | inactive: -28.5% [at 46.1 µM]
Cc1ccc(CNC(=O)c2nc(-c3ccc(Cl)cc3)n3c2CCCCC3)cc1 | inconclusive: 6.31 µM [inhibitor, full curve] | –
CC1CCN(C(=O)/C(=C/c2ccccc2Cl)c2ccccc2)CC1 | inconclusive: 25.1 µM [inhibitor, single point] | –

Compound | Potency | activity change, negative = inhibition
Cc1ccccc1C(=O)Nc1nnc(S(=O)(=O)N(C)Cc2ccc(Cl)cc2)s1 | – | inactive: 13.5% [at 46.1 µM]
COc1ccc(CNC(=O)COC(=O)c2n[nH]c3ccccc23)cc1OC | inconclusive: 23.1 µM [inhibitor, single point] | –
CCCc1c(C)c2cccc(C)c2[nH]c1=O | – | inactive: 0.128%
CC(C)c1ccc(NC(=O)COc2ccc(F)cc2C(=O)c2cnn(-c3ccccc3)c2)cc1 | inconclusive: 35.5 µM [inhibitor, single point] | –
CC1Cc2ccccc2N1C(=O)CSc1nc2cc3c(cc2cc1C#N)OCO3 (centres undefined) | – | inactive: -11.1%
COc1cc(Cc2cnc(N)nc2N)cc(OC)c1OC | inactive and inconclusive: 1.83 µM [activator, partial curve, poor fit] | –
NC(=O)C(=O)O | inconclusive: 23.1 µM [activator, single point] | –
O=C(CCCCCCCC(=O)NNC(=O)Nc1ccccc1)NNC(=O)Nc1ccccc1 | inconclusive: 0.891 µM [inhibitor, single point] | –
C=CCNc1ccc(C(=O)O)cc1 | inconclusive: 35.5 µM [activator, single point] | –
COC(CNC(=S)Nc1ccc([N+](=O)[O-])cc1)OC | – | inactive: -0.285%
COc1cc(/C=C/c2ccc3cccc([N+](=O)[O-])c3n2)ccc1OCC#N | inconclusive: 7.08 µM [inhibitor, full curve, poor fit] | –
Cc1ccc(/C=C/C(=O)OC(C)C(=O)Nc2ccc(Cl)cn2)o1 (centres undefined) | – | inactive: -0.698%
COc1ccc(S(=O)(=O)N(CC(=O)N(C)Cc2ccccc2)c2ccc(Cl)cc2)cc1 | inconclusive: 7.08 µM [inhibitor, partial curve, poor fit] | –
O=C(Nc1ccc2nc(C3CC3)n(Cc3ccc(F)cc3)c(=O)c2c1)c1ccco1 | inconclusive: 14.1 µM [inhibitor, single point] | –
Cc1ccc(SCC(=O)NCCc2ccccc2)cc1 | inconclusive: 2.82 µM [activator, partial curve, poor fit] | –
O=C1C=C(Nc2cccnc2)c2ccccc2C1=O | inconclusive: 17.8 µM [inhibitor, single point] | –
CCn1cc2nc(SCc3ccc(C)cc3)n(CCc3ccccc3)c(=O)c2n1 | inconclusive: 11.2 µM [inhibitor, single point] | –
Cc1ccc(SC(C)C(=O)NCc2ccc(F)cc2)cc1 (centres undefined) | inconclusive: 17.8 µM [activator, single point] | –
CC(C)[C@@H](OCc1ccccc1)[C@H](C)C=NOC[C@@H](O)[C@H]1O[C@@H]2OC(C)(C)O[C@H]2[C@@H]1O | – | inactive: 0% [at 14.3 µM]
COc1ccc(/C=N/Nc2nc3ccccc3c(=O)n2-c2ccccc2)cc1OC | inconclusive: 10 µM [inhibitor, partial curve, poor fit] | –
O=C(NC(=S)Nc1nc2c(s1)CCCC2)c1ccccc1 | inconclusive: 0.562 µM [activator, partial curve, poor fit] | –
CCC(=O)NCCNc1ccc([N+](=O)[O-])cn1 | inconclusive: 29.1 µM [activator, partial curve, poor fit] | –
